Assay results taken from patent US20180171382.
For at least one entry, the source does not settle the construct or the ends of the probe. Where cells or extracts were used, other partners may take part.

What was measured:
Test in all cases: flow cytometry
[1] = test system: B cell receptor (IgD-BCR, membrane IgD) on Ramos cells; details: protein on the cell surface; protein details: endogenous, IgM KO Ramos cells; label: fluorescent (FACS staining); single-stranded DNA
[2] = test system: B cell receptor (IgM-BCR, membrane IgM) on Ramos cells; details: protein on the cell surface; protein details: endogenous, IgD KO Ramos cells; label: fluorescent (FACS staining); single-stranded DNA
[3] = test system: B cell receptor (BCR) on Ramos cells; details: Oligo Extensions complementary to Z-DNA Probes attached by synthesis; bPHA on Ramos cell surface; TD05+ and TD05- pair detects resting BCR oligomers; negative without Z-DNA probes; protein on the cell surface; protein details: endogenous, Ramos cells; single-stranded DNA; variant of TD05 aptamer

| Sequence | binding result [1] | binding result [2] | binding result [3] |
| --- | --- | --- | --- |
| ACCGGGAGGATAGTTCGGTGGCTGTTCAGGGTCTCCTCCCGGTG [TD05 aptamer] | binds | binds |  |
| ACCGGGAGGATAGTTCGGTGGCTGTTCAGGGTCTCCTCCCGGTG [TD05+/TD05- aptamer pair with Oligo Extensions] |  |  | binds |
